From publication PMC7862700
The other results are listed elsewhere or left out. The exact form of the protein is not confirmed.

Molecular target: T1, ELF2 (UniProt Q15723)
T1 sequence: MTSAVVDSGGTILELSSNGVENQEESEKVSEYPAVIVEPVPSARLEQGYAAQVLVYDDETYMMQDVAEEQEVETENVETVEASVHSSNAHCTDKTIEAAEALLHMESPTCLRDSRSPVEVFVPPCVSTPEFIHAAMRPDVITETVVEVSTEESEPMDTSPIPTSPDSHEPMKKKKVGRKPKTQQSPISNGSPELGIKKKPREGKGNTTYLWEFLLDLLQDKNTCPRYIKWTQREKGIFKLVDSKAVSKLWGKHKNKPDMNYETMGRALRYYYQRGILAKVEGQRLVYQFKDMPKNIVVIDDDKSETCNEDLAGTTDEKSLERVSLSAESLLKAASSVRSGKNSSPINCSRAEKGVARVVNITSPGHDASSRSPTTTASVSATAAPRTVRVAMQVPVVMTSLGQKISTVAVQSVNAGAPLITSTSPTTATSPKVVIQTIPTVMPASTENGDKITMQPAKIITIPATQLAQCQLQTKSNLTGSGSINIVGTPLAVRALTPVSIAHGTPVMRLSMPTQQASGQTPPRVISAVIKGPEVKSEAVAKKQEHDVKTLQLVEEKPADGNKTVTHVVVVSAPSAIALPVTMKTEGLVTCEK
Experiment: DAPPL (digital affinity profiling via proximity ligation, sequencing)
Settings: 10 mM Tris-HCl pH 7.5, 50 mM NaCl, 1 mM DTT, 4% glycerol, room temperature, 30 min; GST-TFs on glutathione beads, 16-mer random dsDNA library, 0.1% …; high values mean tight binding; double strand, one strand shown; scale: fold enrichment (6-mer frequency, TF over GST control)

Sequence | binding signal
CACTAG | 0.962
CGTAAA | 1.09
GATCCC | 1.15
AACTCA | 1.21
CCTTCG | 1.29
TATCCC | 1.63
ACGCTA | 1.1
ACAGAA | 0.922
TATAGA | 1.09
AGGTTC | 0.891
ATTTTA | 1.26
AATGGA | 1.02
AAATGC | 1.31
TGGAAT | 1.24
TCCACG | 1.03
TCGAGC | 0.932
TCCAGA | 0.828
GATTTA | 1.01
AAGCCC | 1.11
GCAAAT | 1.07

Sequence | binding signal
GTTCGC | 0.996
ATCCAC | 1.19
ATTGGG | 1.13
AAGGAT | 1.17
CCCGTA | 1.2
TCAAGT | 1.03
ACTTGG | 1.15
CAGATT | 0.996
CTCTTA | 1.3
TCGACG | 0.989
ACCCTC | 1.09
GAAGAT | 0.976
AGATCA | 0.821
TTGGGG | 1.1
TCGAAA | 0.915
TCCCAG | 1.03
GCAACT | 1.22
CCGCAA | 1.46
GACTCC | 1.24
TCTCTT | 1.47

2 entries from above, set out differently:
ACTTGG
  binding signal = 1.15
CAGATT
  binding signal = 0.996
